PubChem BioAssay AID504786, Drosophila RNAi Screening Center, 2011
Screen: 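Positive regulators of HIF-driven reporter output in Drosophila cells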 (primary screen). Cell system: Drosophila S2 cells with a stable HIF luciferase reporter. Reagents: long dsRNA against Drosophila genes, about 0.2 µg dsRNA per well of a 384-well plate. Duration: three days of knock-down, then 20 h of DFO before reading. Treatment: desferrioxamine (DFO) at 100 µM, an iron chelator that mimics hypoxia, for 20 h. Detection: 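HIF reporter luminescence in cells given 100 µM DFO for 20 h, using the mouse ldh-a hypoxia-response element, scored as per-plate z-scores; higher means greater loss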. Reading the numbers: z-score: higher = stronger loss of HIF reporter signal.
The screen tested about 21,000 reagents; below is a random part of those with a known target gene and a result. 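Primary screen; positive scores mean lost reporter signal, so the sign may be inverted from the usual convention.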 A plus sign joins genes that one reagent is predicted to hit. Further read-outs or replicates are left out here.

With knock-down of amx [DRSC18736], the screen gave z-score, replicate 1 = 0.4.
Silencing of sun [DRSC20140] came out at: z-score, replicate 1 = 0.5.
Against mbf1 [DRSC11365], the values are z-score, replicate 1 = -0.2.
Against CG8543 [DRSC10990] the deposit lists z-score, replicate 1 = -0.1.
Eh [DRSC16660] showed z-score, replicate 1 = -0.5.
For His-Psi:CR31616 + His-Psi:CR31615 [DRSC03760], the values are z-score, replicate 1 = 3.3.
With knock-down of CG15093 [DRSC06522], the screen gave z-score, replicate 1 = -0.2.
Knock-down of Kaz-m1 [DRSC16990] resulted in: z-score, replicate 1 = -0.4.
With knock-down of TM9SF2 [DRSC03197], the screen gave z-score, replicate 1 = -0.3.
With knock-down of Xrcc2 [DRSC19984], the record shows z-score, replicate 1 = -0.1.
After knock-down of CG33060 [DRSC09939], the screen gave z-score, replicate 1 = 0.
For imd [DRSC05928] the deposit lists z-score, replicate 1 = -0.1.
Silencing of Cnot4 [DRSC02830] resulted in: z-score, replicate 1 = -0.1.
With knock-down of Cnot4 [DRSC02831] the results were z-score, replicate 1 = 0.
For CG11898 [DRSC14432], the entry reads z-score, replicate 1 = -0.3.
Lis-1 [DRSC07459] scored z-score, replicate 1 = -0.4.
tsr [DRSC04718] scored z-score, replicate 1 = 1.2.
After knock-down of RpL19 [DRSC04649], the record shows z-score, replicate 1 = 10.1.
Knock-down of loopin-1 [DRSC06888] came out at: z-score, replicate 1 = -0.2.
CG42260 [DRSC03953] showed z-score, replicate 1 = -0.6.
Silencing of CG42260 [DRSC04172] gave: z-score, replicate 1 = -0.3.
With knock-down of CG42260 [DRSC04385] the results were z-score, replicate 1 = -0.4.
For CG12105 [DRSC08255], the entry reads z-score, replicate 1 = -0.2.
bru3 [DRSC09280] gave z-score, replicate 1 = -0.4.
For bru3 [DRSC09687], the values are z-score, replicate 1 = -0.3.
With knock-down of bru3 [DRSC09887], the record shows z-score, replicate 1 = -0.2.
With knock-down of cN-IIIB [DRSC04359] the results were z-score, replicate 1 = -0.2.

Targets listed so far whose target name begins with T or t (2):
TM9SF2 [DRSC03197] → z-score, replicate 1 = -0.3
tsr [DRSC04718] → z-score, replicate 1 = 1.2
